The nature of the data set: solution-phase peptide synthesis; EDC/HOBT. The following applies: coupling step, of the theoretical yield, TFA salt.

For “EtOCO-(L)Cha (α-BOC)(L)Lys Nva.psi.[trans cPr]Nle-NH2”, the step yield is given as 44%.
